Results are given in words; binding and its absence hold for the method and conditions named.
Biological target: HSV-1 origin-binding protein (OBP), encoded by the UL9 gene (herpes simplex virus 1 (HSV-1)) (UniProt P10193)
Experiment: condition: only in complex with mini-OriS* (hairpin with a single-stranded 3′ dT10 tail); cryo-EM structure; OBP + mini-OriS* (hairpin with single-stranded 3' dT10 tail), monomer dataset; same reconstitution; 20° tilted stage; preferred particle orientation; both purified

Amino acid sequences for entries named in this document (tags omitted).
UniProt P10193: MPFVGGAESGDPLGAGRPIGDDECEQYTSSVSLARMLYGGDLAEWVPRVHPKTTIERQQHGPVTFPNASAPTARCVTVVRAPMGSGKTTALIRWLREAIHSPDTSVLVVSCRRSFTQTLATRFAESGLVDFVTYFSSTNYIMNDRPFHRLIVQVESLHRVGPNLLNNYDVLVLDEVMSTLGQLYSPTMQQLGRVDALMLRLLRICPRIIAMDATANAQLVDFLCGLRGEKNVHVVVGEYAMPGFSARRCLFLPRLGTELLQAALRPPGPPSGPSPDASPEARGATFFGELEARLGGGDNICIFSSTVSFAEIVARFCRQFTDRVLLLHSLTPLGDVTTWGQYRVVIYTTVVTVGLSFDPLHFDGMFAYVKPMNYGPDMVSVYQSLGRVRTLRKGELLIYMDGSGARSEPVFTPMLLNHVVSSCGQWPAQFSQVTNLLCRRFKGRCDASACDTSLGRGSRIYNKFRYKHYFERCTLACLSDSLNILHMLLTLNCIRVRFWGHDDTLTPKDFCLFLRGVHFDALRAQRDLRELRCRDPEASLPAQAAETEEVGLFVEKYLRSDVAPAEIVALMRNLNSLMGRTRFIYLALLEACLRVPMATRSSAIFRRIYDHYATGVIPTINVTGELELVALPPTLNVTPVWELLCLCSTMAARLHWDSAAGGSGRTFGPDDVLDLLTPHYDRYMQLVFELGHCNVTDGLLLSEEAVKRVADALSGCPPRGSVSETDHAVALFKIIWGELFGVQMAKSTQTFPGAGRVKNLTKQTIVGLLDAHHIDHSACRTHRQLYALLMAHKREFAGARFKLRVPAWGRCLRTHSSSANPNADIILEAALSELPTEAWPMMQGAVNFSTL

“HSV-1 origin-binding protein (OBP), encoded by the UL9 gene (from UniProt P10193 1-851) (enzyme)” was tested, and the binding was “no binding”.

Source: PMC12543377, “https://orcid.org/0000-0003-0166-1786 Gustavsson Emil Data curation Formal analysis Investigation Methodology Project administration Validation Visualization Writing - original draft Writing - review”
